Results are given in words; binding and its absence hold for the method and conditions named. In cells and extracts the contact can be indirect. Some results given as binding are weak or reduced against the parent protein; the word gives no strength.
Key:
[1] = biological target: embryonic ectoderm development (EED) (mouse (endogenous in TSCs and ESCs)) (UniProt Q921E6); experiment: co-IP; EED IP (anti-EED, Abcam ab4469; control IgG) from sonicated whole-cell lysates of WT TSCs, untreated or treated with EZH2i (Tazemetostat, 10 µM, ~5 weeks); 0.5x NLB (218.5 mM NaCl, 0.5% Triton X-100, 0.05% Tween-20, pH 7.4), overnight in the cold room; Protein G Dynabeads; western blot
[2] = biological target: embryonic ectoderm development (EED) (mouse (endogenous in TSCs and ESCs)) (UniProt Q921E6); experiment: co-IP; EED IP (anti-EED, Abcam ab4469; control IgG) from sonicated whole-cell lysates of WT ESCs; 0.5x NLB; Protein G Dynabeads; western blot

By UniProt entry, the sequences of proteins in these tests, tags left out.
UniProt Q921E6: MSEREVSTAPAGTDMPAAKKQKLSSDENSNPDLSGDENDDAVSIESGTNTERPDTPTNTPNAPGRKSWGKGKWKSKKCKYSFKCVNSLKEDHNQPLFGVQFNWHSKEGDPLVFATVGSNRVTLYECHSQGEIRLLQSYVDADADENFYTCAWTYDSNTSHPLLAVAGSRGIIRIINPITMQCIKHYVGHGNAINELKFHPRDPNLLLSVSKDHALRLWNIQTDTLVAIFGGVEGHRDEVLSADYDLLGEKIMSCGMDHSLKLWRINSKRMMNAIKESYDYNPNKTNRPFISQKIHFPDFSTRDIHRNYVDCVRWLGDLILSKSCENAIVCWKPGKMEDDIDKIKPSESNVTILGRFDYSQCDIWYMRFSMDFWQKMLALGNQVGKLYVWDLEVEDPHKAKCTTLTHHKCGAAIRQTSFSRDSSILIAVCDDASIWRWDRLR
UniProt Q61188: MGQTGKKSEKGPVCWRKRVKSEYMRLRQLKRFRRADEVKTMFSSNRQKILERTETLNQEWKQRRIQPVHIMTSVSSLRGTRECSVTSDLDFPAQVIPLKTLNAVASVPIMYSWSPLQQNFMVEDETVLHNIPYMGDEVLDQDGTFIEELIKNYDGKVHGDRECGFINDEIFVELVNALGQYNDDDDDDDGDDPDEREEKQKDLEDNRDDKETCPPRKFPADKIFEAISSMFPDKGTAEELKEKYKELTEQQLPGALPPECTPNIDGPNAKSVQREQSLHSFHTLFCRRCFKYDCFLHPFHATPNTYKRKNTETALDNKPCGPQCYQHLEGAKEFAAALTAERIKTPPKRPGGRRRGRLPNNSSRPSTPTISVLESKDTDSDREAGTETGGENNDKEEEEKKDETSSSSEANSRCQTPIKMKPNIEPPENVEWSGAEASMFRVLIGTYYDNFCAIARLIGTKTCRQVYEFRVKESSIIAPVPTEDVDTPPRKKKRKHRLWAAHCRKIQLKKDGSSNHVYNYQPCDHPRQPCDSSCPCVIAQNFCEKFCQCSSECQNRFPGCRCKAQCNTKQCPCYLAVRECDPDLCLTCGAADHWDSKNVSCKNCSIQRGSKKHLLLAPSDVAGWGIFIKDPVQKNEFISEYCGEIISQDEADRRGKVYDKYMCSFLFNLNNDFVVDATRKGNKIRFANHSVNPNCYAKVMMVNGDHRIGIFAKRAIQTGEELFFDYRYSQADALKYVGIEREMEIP
UniProt Q80U70: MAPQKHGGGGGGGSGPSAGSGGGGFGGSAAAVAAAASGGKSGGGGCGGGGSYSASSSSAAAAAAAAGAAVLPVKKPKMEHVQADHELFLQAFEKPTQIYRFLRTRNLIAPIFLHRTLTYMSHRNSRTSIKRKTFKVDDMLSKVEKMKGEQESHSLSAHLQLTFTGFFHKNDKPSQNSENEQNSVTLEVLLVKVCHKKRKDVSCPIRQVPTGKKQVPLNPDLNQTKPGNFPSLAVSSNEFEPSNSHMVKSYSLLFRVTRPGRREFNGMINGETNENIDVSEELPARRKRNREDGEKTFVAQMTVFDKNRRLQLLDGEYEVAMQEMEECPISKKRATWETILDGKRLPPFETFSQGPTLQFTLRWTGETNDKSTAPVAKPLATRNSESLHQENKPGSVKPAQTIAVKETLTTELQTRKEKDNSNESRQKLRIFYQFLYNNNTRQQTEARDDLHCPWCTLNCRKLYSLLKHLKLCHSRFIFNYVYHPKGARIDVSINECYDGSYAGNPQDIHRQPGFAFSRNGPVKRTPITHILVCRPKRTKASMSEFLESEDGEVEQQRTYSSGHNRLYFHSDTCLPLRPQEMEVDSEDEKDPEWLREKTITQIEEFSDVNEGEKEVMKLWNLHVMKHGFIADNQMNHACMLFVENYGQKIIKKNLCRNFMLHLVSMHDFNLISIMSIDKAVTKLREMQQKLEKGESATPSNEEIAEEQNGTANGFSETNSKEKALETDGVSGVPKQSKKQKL

Molecule | binding [1] | binding [2]
EZH2 (from UniProt Q61188 1-746) | binds | binds
SUZ12 (from UniProt Q80U70 1-741) | binds | binds
RYBP (protein, UniProt Q8CCI5 1-228) MTMGDKKSPTRPKRQAKPAADEGFWDCSVCTFRNSAEAFKCSICDVRKGTSTRKPRINSQLVAQQVAQQYATPPPPKKEKKEKVEKPDKEKPEKDKDISPSVTKKNTNKKTKPKSDILKDPPSEANSIQSANATTKTSETNHTSRPRLKNVDRSTAQQLAVTVGNVTVIITDFKEKTRSSSTSSSTVTSSAGSEQQNQSSSGSESTDKGSSRSSTPKGDMSAVNDESF | no binding | no binding

— article PMC10104784
